Results as given in patent publication US12496315B2, “Compositions for drug delivery and methods of use thereof” (Stellular Bio, Inc., priority 2018, dated 2025).

Key:
human washed platelets = experiment: Doxorubicin loading of washed platelets by passive diffusion; assay type: cell-based
[1] = test system: human iPSC-derived platelets; experiment: Passive loading of Ipilimumab in human iPSC-derived platelets; assay type: cell-based
CD34+ derived platelets = experiment: Ipilimumab-Cy5.5 loading in CD34+ derived platelets; assay type: cell-based, human
[2] = test system: human iPSC-derived platelets; experiment: Covalent conjugation of Ipilimumab to human iPSC-derived platelets; assay type: cell-based; conditions: CD61 and PF4 staining
Human donor platelets = experiment: Antibody uptake by human donor platelets (flow cytometry, confocal); assay type: cell-based
mature megakaryocytes = experiment: Passive loading of Atezolizumab in iPSC-derived megakaryocytes; assay type: cell-based, human

COc1cccc2c1C(=O)c1c(O)c3c(c(O)c1C2=O)C[C@@](O)(C(=O)CO)C[C@@H]3O[C@H]1C[C@H](N)[C@H](O)[C@H](C)O1 [doxorubicin, Doxorubicin hydrochloride]
retention of drug cargo after multiple wash steps (human washed platelets; 10 μM): still be retained
incubation time sufficient to see detectable doxorubicin (human washed platelets; 10 μM, 1e7 platelets in 1 ml, ambient temperature, dialysis cassette): 30 min
doxorubicin signal at the longest incubation (human washed platelets; after 1440 minutes): signal retained

Ipilimumab: anti-CTLA4 antibody drug, commercially available (Selleckchem #A2001)
localization by immunofluorescence ([1]; 100 μg/ml, not conjugated to Cy5.5, CD61 and PF4 staining): on the cell surface and within select alpha granules
Ipilimumab encapsulation, flow cytometry histogram ([1]; 1, 10, 30, and 60 μg per 1e6 platelets in 100 microliter, 37° C. for 1 hour): dose-dependent increase
drug signal localization (CD34+ derived platelets; PF4 and CD61 staining): punctate within the cell
input ratio sufficient to see a maximal signal by flow cytometry (CD34+ derived platelets; pg of Ipilimumab per platelet in the reaction vessel): 100-300 pg/plt
maximal signal by flow cytometry (CD34+ derived platelets; varying concentrations up to 600 μg/ml, 1 hour at 37 degrees Celsius): without a maximal signal established
localization by immunofluorescence [2]: conjugated mostly on the cell surface

atezolizumab: anti-PD-L1 antibody, FDA approved antibody drug
localization by confocal microscopy (Human donor platelets; AlexaFluor 488 anti-human secondary IgG, CD61-APC): sub-cellular localization within the platelets
uptake by platelets (Human donor platelets; labeled antibody): up to 200 μg
plateau or maximum dose of uptake (Human donor platelets; up to 200 μg): did not exhibit a plateau or maximum dose of uptake
uptake by megakaryocytes and their static generated platelets (mature megakaryocytes; Dylight 488-labeled, 30 minutes): capable of uptake of atezolizumab
localization (mature megakaryocytes; PF4 stain): colocalize with the alpha granule stain PF4

Where a name gives a salt, the structure may show the parent alone.
